This passage reports binding results from publication PMC3747992.

Sequences of proteins named here, by UniProt entry; tags and fusion partners are left off.
UniProt P40337: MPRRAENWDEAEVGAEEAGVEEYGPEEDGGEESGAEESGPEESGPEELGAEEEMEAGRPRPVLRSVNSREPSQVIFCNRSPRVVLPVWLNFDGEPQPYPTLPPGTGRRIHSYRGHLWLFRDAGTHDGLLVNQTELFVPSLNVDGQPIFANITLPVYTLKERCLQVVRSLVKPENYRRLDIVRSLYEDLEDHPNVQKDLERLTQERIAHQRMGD

The test has as its target von Hippel-Lindau protein (VHL), endogenous (human (endogenous in U937)) (UniProt P40337). Description: co-IP; IP with anti-VHL antibody from lysates of U937 cells treated with IFN-γ and MG132 for up to 24 h; immunoblot for hnRNP L, VHL, hnRNP A2/B1, DRBP76. (In general: A western blot detects proteins with antibodies after separation by electrophoresis.)

No constants are given. Whether binding was seen depends on the method and setting. Binding seen in cells or lysates may run through a third protein. Some entries that bind do so weakly or less than the wild type.

B1: heterogeneous nuclear ribonucleoprotein L (hnRNP L), endogenous (protein, UniProt P14866 1-589)
chain: MSRRLLPRAEKRRRRLEQRQQPDEQRRRSGAMVKMAAAGGGGGGGRYYGGGSEGGRAPKRLKTDNAGDQHGGGGGGGGGAGAAGGGGGGENYDDPHKTPASPVVHIRGLIDGVVEADLVEALQEFGPISYVVVMPKKRQALVEFEDVLGACNAVNYAADNQIYIAGHPAFVNYSTSQKISRPGDSDDSRSVNSVLLFTILNPIYSITTDVLYTICNPCGPVQRIVIFRKNGVQAMVEFDSVQSAQRAKASLNGADIYSGCCTLKIEYAKPTRLNVFKNDQDTWDYTNPNLSGQGDPGSNPNKRQRQPPLLGDHPAEYGGPHGGYHSHYHDEGYGPPPPHYEGRRMGPPVGGHRRGPSRYGPQYGHPPPPPPPPEYGPHADSPVLMVYGLDQSKMNCDRVFNVFCLYGNVEKVKFMKSKPGAAMVEMADGYAVDRAITHLNNNFMFGQKLNVCVSKQPAIMPGQSYGLEDGSCSYKDFSESRNNRFSTPEQAAKNRIQHPSNVLHFFNAPLEVTEENFFEICDELGVKRPSSVKVFSGKSERSSSGLLEWESKSDALETLGFLNHYQMKNPNGPYPYTLKLCFSTAQHAS
B1: the binding result was “binds”.
